# From PubChem BioAssay AID1794845 (National Center for Advancing Translational Sciences (NCATS), 2023)
# Amino acid sequences for entries named in this document (tags omitted). A change or cut given only in a name is not applied to a line headed by its entry.
# UniProt C7C422: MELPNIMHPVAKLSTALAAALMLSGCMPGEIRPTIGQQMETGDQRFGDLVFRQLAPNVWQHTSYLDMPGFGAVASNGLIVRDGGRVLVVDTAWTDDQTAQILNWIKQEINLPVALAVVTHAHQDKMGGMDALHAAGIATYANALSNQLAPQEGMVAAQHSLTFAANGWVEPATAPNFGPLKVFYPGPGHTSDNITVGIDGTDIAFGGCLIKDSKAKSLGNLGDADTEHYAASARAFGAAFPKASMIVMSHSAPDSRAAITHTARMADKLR
# The campaign covered roughly 6,900 compounds. Fewer than 10 were called active. Calls come from the whole dose curve; as a rule, active = well fitted curve in the direction sought with a large enough effect; inconclusive = small, poorly fitted or top-dose-only effect, or another doubt; inactive = no such curve, though single readings can be large or run the other way. The list shows a part of the results.
# Biological target: Metallo-beta-lactamase type 2 (Klebsiella pneumoniae) (UniProt C7C422)
# Test: qHTS to identify inhibitors of the New Delhi Metallo-beta-lactamase (NDM): primary screen against the NCATS Gemini Collection; note: % of control where 0% means no effect
# Conditions: NDM-1 enzyme, meropenem hydrolysis, absorbance 300 nm; at 38.4 µM (top of the series) unless noted
# Method in brief: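 Meropenem hydrolysis (50 uM final) by 2 nM NDM-1 read as 300 nm absorbance after 30 min, following >30 min compound–enzyme preincubation in HEPES pH 7.0 with 1 uM ZnSO4 and 0.01% Tween20.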
row,SMILES,activity % (negative = inhibition)
1,COCCC1(NC(=O)c2ccoc2)CCN(CC2CC2)CC1,inactive: -0.904%
2,O=C(NC1CCCCC1)N1CCC(Cc2nc(-c3ccccc3)n[nH]2)C1 (centres undefined),inactive: -0.103%
3,N#Cc1cccc(-c2cn3c(n2)N(C(=O)c2ccsc2)CCC3)c1,inactive: 12.4%
4,O=[S+]1([O-])N(Cc2ccccc2)C[C@@H](O)[C@]12CCN(Cc1ccc(C(F)(F)F)nc1)C2,inactive: -1.41%
5,Cn1nccc1C(=O)N1CCC(N2CC(OCC3CC3)C23CCOCC3)CC1 (centres undefined),inactive: -1.15%
6,CC1=C[C@@H](CNC(=O)CC(C)(C)C)[C@H](C(C)C)C[C@H]1CC(=O)NC1CCCC1,inactive: -1.26% [at 57.5 µM]
7,O=C1CC(NS(=O)(=O)N2CCCC2)CN1Cc1ccc(F)cc1 (centres undefined),inactive: 0.157%
8,Cc1ccc(-c2nnc(C3CN(C(=O)c4ccnn4C)CC34CCOCC4)o2)cc1 (centres undefined),inactive: 1.72%
9,COc1ccccc1-c1cc(C(=O)N2CCOCC2)nc2c1cnn2C,inactive: -3.82%
10,C=CCOc1cccc(-c2nnc(CCC(=O)NCc3ccccc3)c(=O)[nH]2)c1,inactive: 16.7%
11,COc1ccc(CN2C[C@@H](CO)[C@H](c3ccncc3)C2)c(OC)c1,inactive: 3.35%
12,COc1ccc(-n2ncc3c2CC(C)(C)CC3NC(=O)c2cc(C)[nH]n2)cc1 (centres undefined),inactive: -0.397%
13,O=C(CC(c1ccccc1)c1ccccc1F)N1CCN(c2ccncc2)CC1 (centres undefined),inactive: 9.16%
14,CN1CCN(C(CN)C2CCCCC2)CC1 (centres undefined),inactive: 0.469% [at 77.1 µM]
15,CC1(C)C(=O)N(CC2CCOCC2)[C@H]2CN(Cc3cccs3)C[C@@H]2[S+]1(=O)[O-],inactive: -0.26% [at 57.5 µM]
16,CNc1nc(C(=O)N2CCC(c3nccn3Cc3ccncc3)CC2)cs1,inactive: 4.7%
17,CN(C)CCN(C)[C@@H]1[C@H](O)[C@H](CO)O[C@@H]1CN(Cc1ccc(Cl)cc1)Cc1cccc(Cl)c1,inactive: 3.27%
18,COCCNC(=O)C(NC(=O)c1ccccc1)C1CCN(C(=O)C2CC2)CC1 (centres undefined),inactive: 0.454%
19,C[C@@H]1C(=O)O[C@H]2[C@H]1CC[C@@]1(C)Cc3sc(NC(=O)COc4ccccc4)nc3[C@@H](C)[C@H]21,inactive: 13.6%
20,CC(C)(C)OC(=O)NCCCC(=O)NCc1ccnc2[nH]ccc12,inactive: 7.31%
21,Cc1occc1C(=O)N1CCCC(O)(CNC(=O)N2CCOCC2)CC1 (centres undefined),inactive: -3.21%

row,SMILES,activity % (negative = inhibition)
1,O=C(Cc1ccccn1)N1CCC(C(=O)N2CCC(c3nc4ncccc4[nH]3)CC2)CC1,inactive: 3.96%
2,COc1ccc(OC2CN(Cc3cccnc3)C2)cc1,inactive: -12.6% [at 57.5 µM]
3,CC(=O)Nc1ccc(OCC(=O)N2CCC(C)CC2)nc1,inactive: -0.0841%
4,COCCN(C)C[C@@H]1CN(C(=O)c2nc(-c3ccccc3)[nH]c2C)C[C@@H]1CO,inactive: 16%
5,O=C(NCc1ccc2c(c1)OCO2)c1csc(N2CCN(c3ccc(F)cc3)CC2)n1,inactive: 2.96%
6,CC(=O)N1CCn2c(nnc2-c2ccccc2)C1,inactive: 8.68% [at 57.5 µM]
7,CCN1C(=O)CCc2cc(NC(=O)CC(C)C)ccc21,inactive: -2.76%
8,CC(C)Cn1c(=O)n(CC(C)N2CCCC2)c2cc(C(=O)O)cnc21 (centres undefined),inactive: 4.04%
9,COc1ccc(C(=O)N[C@@H]2CCOC[C@H]2Oc2ccccn2)c(F)c1F,inactive: -1.2%
10,O=C1NC(=NC2CCCCC2)C2(CCCN([S+](=O)([O-])c3cccc(C(F)(F)F)c3)C2)N1c1cc(F)cc(F)c1 (centres undefined),inactive: -8.36%
11,CC1=NS(=O)(=O)N(C)C=C1C(=O)OCc1nc(C)no1,inactive: 31.4%
12,NS(=O)(=O)c1ccc(C(=O)N[C@H](c2cccs2)C2CC(O)C2)cc1 (some centres undefined),inactive: 8.84%
13,CC(=O)N1CCOc2ccc(CCC(=O)N3CCN(C4CCCCC4)CC3)cc2C1,inactive: -7.13%
14,C=CCNc1nc(C)nc2c1CCN(C(=O)Cc1nnc(N)s1)CC2,inactive: -1.18%
15,CCCn1c(C)c(CC(=O)NCC2COCCO2)c2c1CC(C)(C)CC2=O (centres undefined),inactive: 9.65%
16,O=[S+]([O-])(c1cccs1)N1CCCC2(CC(c3ccccc3)=NO2)C1 (centres undefined),inactive: -4.24%
17,CCN1c2cc(C(=O)NCc3cccc(OC)c3)ccc2C(=O)N2CCCCCC21 (centres undefined),inactive: -1.41%
18,Cc1cc(S(=O)(=O)N[C@@H]2CCOC[C@H]2Oc2ccccn2)c(C)s1,inactive: -0.546%
19,COC[C@H]1C[C@@H](NC(=O)Nc2cccnc2)[C@H](O)[C@@H]1O,inactive: 37.7% [at 77.1 µM]
20,Cc1ccc(CCNC(=O)c2cc3c(=O)[nH]c(C)cn3n2)cc1,inactive: -2.85%
21,O=C(NCc1ccccc1Cl)c1ccc2nnc(-c3ccoc3)n2c1,inactive: 6.12% [at 57.5 µM]

row,SMILES,activity % (negative = inhibition)
1,CN1CCN(c2ncnc3c2CN(C2CCCCC2)C(=O)CN3C)CC1,inactive: 7.11%
2,O=C(Cc1ccsc1)N1CCC(n2cc(-c3nc(-c4ccccc4)no3)nn2)C1 (centres undefined),inactive: -1.69%
3,CC(C)c1nccn1CCCNc1nc(-c2ccncc2)nc2c1cnn2C,inactive: -0.454%
4,CCOC(=O)c1cccc(NC(=O)N2CC[C@@H](CC(=O)NCc3ccccc3OC)[C@@H](CC)C2)c1,inactive: 1.87%
5,COc1ccccc1-c1noc(CCC(=O)N2CCC(Cc3noc(C)n3)CC2)n1,inactive: 4.71%
6,COC[C@@H]1CN(Cc2ccco2)C[C@H]1C(=O)N(C)C,inactive: 0.78%
7,CC(=O)NCc1nnc2n1C(C(=O)NC1CCCCCC1)CC2 (centres undefined),inactive: 3.06% [at 57.5 µM]
8,CC(C)CC(=O)N1C(C(=O)NCC2CCCO2)COC12CCC(C)CC2 (centres undefined),inactive: 0.607%
9,O=C(NCc1ccc(Cl)cc1)c1c[nH]c2ncccc12,inactive: 5.54% [at 57.5 µM]
10,COc1ccc(-c2cnc3n[nH]c(-c4ccccc4C)c3n2)cn1,inactive: 30.4% [at 57.5 µM]
11,COc1ccc2cc(C3CN(CCC(=O)NC(C)(C)C)CCO3)ccc2c1 (centres undefined),inactive: -2.11%
12,Cn1ccnc1C(=O)N1CCC(Cc2ccc(CCC(=O)N3CCCC3)cc2)CC1,inactive: -2.12%
13,Cn1cncc1-c1nnc([C@H]2CCN(CC3CCCCC3)C2)o1,inactive: 20.3% [at 57.5 µM]
14,O=C(C1CCCO1)N1CCN(c2nc(-c3cccnc3)nc3c2CNC3)CC1 (centres undefined),inactive: 15.7%
15,CCc1ccc(CNC(=O)CN2C(=O)NC3(CCOCC3)C2=O)cc1,inactive: 8.49%
16,CC(C)CN[C@H]1CO[C@H]2[C@@H]1OC[C@@H]2Nc1nccc(-c2cccs2)n1,inactive: 8.35% [at 57.5 µM]
17,CCc1nc(-c2c3n(c(=O)n(CC(=O)NCc4cccc(OC)c4)c2=O)CCCC3)no1,inactive: -6.6%
18,Cc1cccc2nc(CNC(=O)c3cccc(C4CCNC4)c3)cn12 (centres undefined),inactive: 15.3%
19,O=C(NCc1cccc(C(F)(F)F)c1)c1nn(CCOc2ccccc2)c2c1CNCC2,inactive: -1.9%
20,CC(C)CCN1C(=O)CC[C@]2(C(=O)NCc3cccs3)CCCC[C@@H]12,inactive: 0.919%
21,O=C(c1ccccn1)N1C[C@@H]2C[C@H](C1)c1ccc(NS(=O)(=O)Cc3ccccc3)c(=O)n1C2,inactive: 44.6%

# Laid out differently: five of the compounds above.
row	SMILES	activity % (negative = inhibition)
8	CC(C)CC(=O)N1C(C(=O)NCC2CCCO2)COC12CCC(C)CC2 (centres undefined)	inactive: 0.607%
9	O=C(NCc1ccc(Cl)cc1)c1c[nH]c2ncccc12	inactive: 5.54% [at 57.5 µM]
10	COc1ccc(-c2cnc3n[nH]c(-c4ccccc4C)c3n2)cn1	inactive: 30.4% [at 57.5 µM]
11	COc1ccc2cc(C3CN(CCC(=O)NC(C)(C)C)CCO3)ccc2c1 (centres undefined)	inactive: -2.11%
12	Cn1ccnc1C(=O)N1CCC(Cc2ccc(CCC(=O)N3CCCC3)cc2)CC1	inactive: -2.12%

# More compounds follow:

row,SMILES,activity % (negative = inhibition)
1,CCn1nccc1C(=O)N1CCCC(c2nnc(CN3CCCC3)n2C)C1 (centres undefined),inactive: -5.8%
2,CCCn1cc(-c2ccnc(NCc3c(F)ccc(C)c3F)n2)c(C)n1,inactive: -0.376%
3,Cc1cc(CN2CCC3(CC2)CC(c2ccccc2)C(=O)N(C2CC2)C3)on1 (centres undefined),inactive: -1.05%
4,CN[C@@H](C)c1nc(C2CCOCC2)nn1CC1CCCCC1,inactive: 1.27%
5,COCC(=O)N(C1CCOCC1)C1CCN(C(=O)c2cccnc2C)CC1,inactive: 10.8%
6,CCNC(=O)[C@@H]1C[C@H](NC(=O)c2ccco2)CN1C(=O)Cn1nccc1C,inactive: -0.914%
7,COC(=O)CNC(=O)N1CCCC1c1nc(CCOCC2CC2)no1 (centres undefined),inactive: 19.8%
8,Cc1ncsc1CN1CCC2(CC1)CC(CC(=O)NCc1ccncc1)CCO2 (centres undefined),inactive: -3.89%
9,Cc1ccc(OCCC2CCN(C(=O)Cn3cnc4c3c(=O)n(C)c(=O)n4C)C2)cc1 (centres undefined),inactive: 9.19%
10,O=C(c1cnc2ccccn12)N1CCc2c(nc(-c3ccccc3)[nH]c2=O)C1,inactive: 8.8%
11,COCCn1c(C)cnc1CCNC(=O)NCC(C)C,inactive: -3.47%
12,O=C(Cn1nc2n(c1=O)CCCC2)N1CCN(c2ccc(F)cc2)CC1,inactive: 0.102%
13,O[C@H]1CC[C@@H](Cc2cc(CN3CCN(c4ccccc4)CC3)on2)O[C@@H]1CNCc1ccccc1,inactive: 0.727%
14,Nc1nc(NCc2ccc(N3CCCC3=O)cc2)cc(C2CC(O)C2)n1 (centres undefined),inactive: 3.92%
15,O=C(Nc1ccc(F)cc1)c1cc(-c2ccc[nH]2)n[nH]1,inactive: 53.1%
16,CCN(C)C(=O)CN1C[C@@H]2C[C@H]1C(=O)N2c1cc(-c2ccccc2)ccc1OC,inactive: -3.47%
17,CN(Cc1ccccc1)C1CCOC2(CCN(C(=O)CCc3nc4ccccc4[nH]3)CC2)C1 (centres undefined),inactive: -4.05%
18,COC(=O)[C@H]1CN(C(=O)NC(C)C)CCN1S(C)(=O)=O,inactive: 5.95% [at 57.5 µM]
19,Cc1nnc(-c2cc(-c3cccc(O)c3)ccn2)n1CCc1ccccc1,inactive: 10.1% [at 57.5 µM]
20,O=C(NCc1ccccc1)c1cnc2n1CCN(Cc1c[nH]c3ccccc13)CC2,inactive: 4.57% [at 57.5 µM]
21,O=C1NN=C(c2ccccn2)C12CCN([S+](=O)([O-])c1cccc(C(F)(F)F)c1)CC2,inactive: 7.54%
